According to article PMC8543921:
Results are given in words; binding and its absence hold for the method and conditions named. Binding seen in cells or lysates may run through a third protein. Here binding means that the protein was enriched with, or labelled near, the bait; the list need not be complete. For some assays here: A no says only that the protein was not detected with the bait. Sequences can lack the tags named with a protein.

By UniProt entry, the sequences of proteins in these tests, tags left out. Where a name states a change or a piece, a line headed by the entry shows the natural chain unless it says otherwise.
UniProt F4JC97: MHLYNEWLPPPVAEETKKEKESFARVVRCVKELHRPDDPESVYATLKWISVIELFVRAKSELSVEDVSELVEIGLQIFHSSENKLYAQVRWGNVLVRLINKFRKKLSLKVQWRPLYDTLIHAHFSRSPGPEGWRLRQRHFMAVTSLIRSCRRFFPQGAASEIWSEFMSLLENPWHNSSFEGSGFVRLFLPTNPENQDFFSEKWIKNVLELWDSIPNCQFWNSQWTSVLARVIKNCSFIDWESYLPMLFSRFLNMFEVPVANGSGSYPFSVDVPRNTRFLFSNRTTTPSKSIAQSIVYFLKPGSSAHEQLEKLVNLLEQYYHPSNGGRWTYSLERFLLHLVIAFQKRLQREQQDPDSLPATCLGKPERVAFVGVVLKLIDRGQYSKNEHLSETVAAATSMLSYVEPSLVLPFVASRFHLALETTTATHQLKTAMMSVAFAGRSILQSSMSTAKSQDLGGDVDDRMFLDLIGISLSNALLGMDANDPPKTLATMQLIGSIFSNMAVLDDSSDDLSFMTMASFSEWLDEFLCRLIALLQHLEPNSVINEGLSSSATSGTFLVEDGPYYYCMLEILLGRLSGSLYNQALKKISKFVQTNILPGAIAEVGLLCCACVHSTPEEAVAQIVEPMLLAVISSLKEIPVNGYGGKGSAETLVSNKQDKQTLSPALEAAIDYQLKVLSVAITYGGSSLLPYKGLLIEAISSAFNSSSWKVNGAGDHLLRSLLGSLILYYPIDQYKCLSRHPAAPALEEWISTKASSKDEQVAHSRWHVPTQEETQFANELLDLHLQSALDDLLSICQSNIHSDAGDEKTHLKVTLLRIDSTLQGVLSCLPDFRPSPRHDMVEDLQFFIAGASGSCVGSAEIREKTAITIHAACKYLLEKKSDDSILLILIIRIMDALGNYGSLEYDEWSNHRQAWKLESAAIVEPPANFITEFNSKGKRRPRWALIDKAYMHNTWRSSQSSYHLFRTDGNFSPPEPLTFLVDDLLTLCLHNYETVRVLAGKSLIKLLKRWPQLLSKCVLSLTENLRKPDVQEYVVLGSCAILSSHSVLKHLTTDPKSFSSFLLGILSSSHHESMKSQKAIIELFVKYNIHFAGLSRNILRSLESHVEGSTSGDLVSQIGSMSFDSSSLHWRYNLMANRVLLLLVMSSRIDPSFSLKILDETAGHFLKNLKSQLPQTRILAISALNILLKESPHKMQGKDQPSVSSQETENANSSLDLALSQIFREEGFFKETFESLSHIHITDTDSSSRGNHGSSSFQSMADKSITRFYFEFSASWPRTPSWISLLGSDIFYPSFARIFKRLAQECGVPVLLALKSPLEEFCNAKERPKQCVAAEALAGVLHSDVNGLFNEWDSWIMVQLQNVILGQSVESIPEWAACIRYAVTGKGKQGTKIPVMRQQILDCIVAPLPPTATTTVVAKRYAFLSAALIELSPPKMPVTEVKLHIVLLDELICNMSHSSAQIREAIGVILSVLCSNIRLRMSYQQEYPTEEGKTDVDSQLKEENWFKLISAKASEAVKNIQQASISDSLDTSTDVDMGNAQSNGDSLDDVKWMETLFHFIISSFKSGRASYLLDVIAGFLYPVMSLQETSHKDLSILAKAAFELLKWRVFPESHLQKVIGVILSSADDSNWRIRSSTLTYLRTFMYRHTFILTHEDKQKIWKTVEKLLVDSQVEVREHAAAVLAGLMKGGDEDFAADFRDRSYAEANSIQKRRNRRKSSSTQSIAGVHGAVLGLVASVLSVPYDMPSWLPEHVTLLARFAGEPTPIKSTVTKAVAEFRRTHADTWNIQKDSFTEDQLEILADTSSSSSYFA
UniProt O23710: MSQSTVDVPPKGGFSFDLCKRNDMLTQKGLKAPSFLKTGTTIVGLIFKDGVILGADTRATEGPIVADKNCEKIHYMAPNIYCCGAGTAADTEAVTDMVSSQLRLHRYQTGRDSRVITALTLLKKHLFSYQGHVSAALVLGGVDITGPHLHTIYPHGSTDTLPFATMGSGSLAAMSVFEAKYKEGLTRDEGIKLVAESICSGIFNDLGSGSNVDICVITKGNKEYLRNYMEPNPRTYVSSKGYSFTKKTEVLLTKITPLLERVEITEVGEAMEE
UniProt Q7DLS1: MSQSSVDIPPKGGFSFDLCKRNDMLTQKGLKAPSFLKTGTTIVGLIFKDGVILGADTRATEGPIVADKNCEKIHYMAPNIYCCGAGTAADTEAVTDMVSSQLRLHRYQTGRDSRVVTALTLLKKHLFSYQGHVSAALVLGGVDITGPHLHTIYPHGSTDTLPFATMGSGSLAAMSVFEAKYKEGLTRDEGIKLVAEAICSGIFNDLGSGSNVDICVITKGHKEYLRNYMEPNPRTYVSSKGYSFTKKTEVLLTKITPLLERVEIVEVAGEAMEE
UniProt Q9SZD4: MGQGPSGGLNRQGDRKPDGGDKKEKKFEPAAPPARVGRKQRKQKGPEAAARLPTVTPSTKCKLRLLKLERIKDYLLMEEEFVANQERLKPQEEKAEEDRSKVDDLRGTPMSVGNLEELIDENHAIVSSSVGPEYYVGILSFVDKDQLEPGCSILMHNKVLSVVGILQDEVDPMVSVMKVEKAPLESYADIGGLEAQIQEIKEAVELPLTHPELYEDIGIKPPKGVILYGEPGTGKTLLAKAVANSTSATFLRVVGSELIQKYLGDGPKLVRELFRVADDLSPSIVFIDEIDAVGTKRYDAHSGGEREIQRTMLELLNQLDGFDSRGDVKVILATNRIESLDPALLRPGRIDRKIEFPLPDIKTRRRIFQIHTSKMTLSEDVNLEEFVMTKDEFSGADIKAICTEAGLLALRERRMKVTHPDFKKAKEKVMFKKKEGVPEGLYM
UniProt F4HRT6: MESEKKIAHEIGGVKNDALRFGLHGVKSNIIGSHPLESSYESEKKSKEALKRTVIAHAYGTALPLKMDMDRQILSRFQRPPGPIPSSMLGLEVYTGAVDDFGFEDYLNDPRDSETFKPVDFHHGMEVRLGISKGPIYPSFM
UniProt Q9FFV7: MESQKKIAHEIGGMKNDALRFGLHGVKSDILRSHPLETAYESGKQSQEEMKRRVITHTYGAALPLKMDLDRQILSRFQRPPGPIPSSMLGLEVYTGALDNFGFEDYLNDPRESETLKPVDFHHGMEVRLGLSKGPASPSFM

T1: PAG1-FLAG (Arabidopsis thaliana) (UniProt O23715)
T1 sequence: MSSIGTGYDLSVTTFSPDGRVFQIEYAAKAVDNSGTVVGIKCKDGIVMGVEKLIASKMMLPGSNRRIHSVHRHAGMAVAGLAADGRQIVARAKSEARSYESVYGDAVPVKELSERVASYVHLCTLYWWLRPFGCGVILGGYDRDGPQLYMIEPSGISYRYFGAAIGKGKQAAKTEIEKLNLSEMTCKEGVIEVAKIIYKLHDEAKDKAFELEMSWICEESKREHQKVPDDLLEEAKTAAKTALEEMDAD

B1: RPN1a (protein, UniProt Q9SIV2 1-891)
chain: MAPTQDPNSVGGGAKKDEATLKVPSKDPKKKDEKKDEDLSEEDLELKQNLELYVERVQDPNPELQKAALESMRQEIRASTSSMTSVPKPLKFLRPHYGTLKAFHETMADSDLKKYLSDILSVLALTMSADGERESLRFRLIGTEGDIGSWGHEYVRNLAGEIAQEYTKRQSEEASIDDLMELVQQIVAFHMKHNAETEAVDLLMDVEDLDLLLEHVDKTNFKRTCNYLTSAARYLPGPDDMLVLDISYMIYMKFEEYPNALQIALFLDNTQYVKQVFTSCTDLLKKKQFCYMIARHGITFELDDEMVADDDDREALQDIVNNTKLSEGYLTLARDIEVMEAKTPEDIYKAHLLDGRASSGASVDSARQNLAATFVNAFVNAGFGQDKLMTVPSDSTTGSSGNWLFKNKEHGKTSAAASLGMIQLWDVDSGLSQLDKYFHSNDNPIIAGALLGVGIVNCGIKNDCDPALALLGDYIDKEDSSVRIGAIMGLGISYAGSQNDQIRNKLSPILNDAKAPLDVIAFASLSLGMIYVGSCNEEVAQSIIFALMDRSEAELGDALTRFLPLGLGLLYLGKQESVEATAEVSKTFNEKIRKYCDMTLLSCAYAGTGNVLKVQDLLAQCGEHLEKGDIHQGPAVLGLAMVAMSEELGVDMEIRSLERMLQYGEQNIRRAVPLALGLLCISNPKVTVMDTLSRLSHDTDSEVAMSAIISLGLIGAGTNNARIAGMLRNLSSYYYKDMSLLFCVRIAQGLVHMGKGLLTLSPFHSERFLLSPTALAGIVTLLHACLDMKPIILGKYHYVLYFLVLAMQPRMMLTVDENLKPLSVPVRVGQAVDVVGQAGRPKTITGFQTHSTPVLLAAGERAELATDKYIPLSPILEGFIILKENPDYREE
B2: RPN1b (protein, UniProt Q6XJG8 1-891)
chain: MAPVPDPNSVGGGAKRDEATTKIPSKDSKKKDDKKEEDLSEEDLQLKQNLELYVERVQDPNPELQKIALESMRKEIRDSTSSMTSVPKPLKFLRPHYGVLKEFHAKMAESDLKKMLADILSVLALTMSAEGERESLNYRLNGSESDIGSWGHEYVRNLAGEIAKEYTIRQGEESSIEDLMDLVQQIVSFHMKHNAETEAVDLLMDVEDLDLLLEHVDNTNFRRTCNYLTSAAKYLPGPDDMLVLDIAYMIYIKFAEYPNALQIALFLDNMQYVKQVFTSCTDLVKKKQFCYMIARHGMTFELDQEMVANDEDKEALQDIVNNSKLSEGYLTLARDIEVMEAKTPEDIYKAHLLDGRASSGPSVDSARQNLSATFVNAFVNAGFGQDKLMTVPSDSTSGSAGNWLFKNKEHGKTSAVASLGMIQLWDVETGLGHLDKYFHSNDNPVVAGALLGVGIVNCGIKNDCDPAFALLSGYIDNEDSSVRIGAIMGLGIAYAGSQNDQIKIRLSPILNDANAPLDVIAFAALSLGMIYVGSCNEEVAQSIIFALMDRSEAELGEALTRFLPLGLGLLYLGKQESVEATAEVSKTFNEKIRKYCDMTLLSCAYAGTGNVLKVQDLLAQCGEHLVKGDIHQGPAVIGLAMVAMSEELGLDMEIRSLERVLQYGEQNIRRAVPLALGLLCISNPKVTVMDTLSRLSHDTDSEVAMAAIISLGLIGAGTNNARIAGMLRNLSSYYYKDASLLFCVRIAQGFVHMGKGLLTLNPFHSERLLLSPTALAGIVTLLHACLDMKSIILGKYHYVLYFLVLAMQPRMMLTVDQSLKPISVPVRVGQAVDVVGQAGRPKTITGFQTHSTPVLLAAGERAELATEKYIPLSPILEGFVILKENPDYREE

How the values were obtained:
[1] = biological target: T1, PAG1-FLAG (Arabidopsis thaliana); experiment: affinity purification with mass spectrometry; PAG1-FLAG proteasomes on anti-FLAG M2 resin, LC-MS/MS; isolated in the presence and/or absence of 20 mM ATP (not told for each protein); less found from NaCl-treated seedlings
[2] = biological target: T1, PAG1-FLAG (Arabidopsis thaliana); experiment: affinity purification with mass spectrometry; PAG1-FLAG proteasomes from seedling lysate on anti-FLAG M2 resin, 1 h at 4 °C, buffer A (50 mM HEPES-KOH pH 7.5, 50 mM NaCl, 10% glycerol, 10 mM MgCl2, 5 mM DTT) with 20 mM ATP, eluted with 3X FLAG peptide, LC-MS/MS; control, MV- and NaCl-treated seedlings
[3] = biological target: T1, PAG1-FLAG (Arabidopsis thaliana); experiment: affinity purification with mass spectrometry; as a1 with 20 mM ATP, seedlings stressed with 150 mM NaCl
[4] = biological target: T1, PAG1-FLAG (Arabidopsis thaliana); experiment: condition: only seedlings stressed with 150 mM NaCl; affinity purification with mass spectrometry; as a1 with 20 mM ATP, seedlings stressed with 150 mM NaCl

binding [1] | binding [2] | also measured | Molecule
binds | – | – | PA200 (from UniProt F4JC97 1-1811)
– | binds | – | PAF
binds | – | – | PAP1
binds | – | – | PBAC1
binds | – | – | PBAC2
binds | – | – | PBAC3
binds | – | – | PBAC4
– | binds | – | PBB1 (from UniProt O23710)
– | binds | – | PBB2 (from UniProt Q7DLS1)
binds | – | – | PTRE1
– | binds | – | RPN2
– | binds | – | RPN5
– | – | binding [3]: binds | RPT2a (from UniProt Q9SZD4 1-443)
– | binds | – | RPT5
– | binds | binding [4]: no binding | SEM1/DSS1
binds | – | – | UMP1a (from UniProt F4HRT6)
binds | – | – | UMP1b (from UniProt Q9FFV7)
– | binds | – | B1
– | binds | – | B2
